Assay results reported in patent US20200181677A1, “SCREENING SYSTEM AND METHODS FOR IDENTIFYING ENZYME SUBSTRATES AND MODULATORS OF ENZYME ACTIVITY” (Regents of the University of Minnesota, priority 2017, published 2020).
Results are given in words; binding and its absence hold for the method and conditions named. Some entries that bind do so weakly or less than the wild type.

Tests used:
[1] = target: human PKCα catalytic domain (human) (UniProt P17252); test: affinity by steady-state FRET of the corresponding sensors (FIGS. 6B, 6C)
[2] = target: human PKCα catalytic domain (human) (UniProt P17252); test: steady-state FRET of the corresponding sensors (legend of FIG. 6B)
[3] = target: human PKCα catalytic domain (human) (UniProt P17252); test: affinity by FRET of the corresponding sensor; peptide used free in the activity assay (FIG. 5B)
[4] = target: human PKCα catalytic domain (human) (UniProt P17252); test: steady-state FRET ratio of 10 nm sensor (FIG. 5A)
[5] = target: human PKCα catalytic domain (human) (UniProt P17252); test: FRET intensity ratio of SPASM sensors (FIG. 9B)
[6] = target: human PKCα catalytic domain (human) (UniProt P17252); test: steady-state FRET of sensor with 100 µM ATP, titrated with BimI (FIG. 6A)
[7] = target: human PKCα catalytic domain (human) (UniProt P17252); test: steady-state FRET of sensor, untreated against kinase inhibitors (FIG. 7)
[8] = target: human PKCα catalytic domain (human) (UniProt P17252); test: steady-state FRET of sensors without nucleotide (FIG. 4B)
[9] = target: human PKCα catalytic domain (human) (UniProt P17252); test: steady-state FRET of sensors (FIG. 4B)
[10] = target: human PKCα catalytic domain (human) (UniProt P17252); test: relative binding affinity by FRET (FIG. 4B)

Binder	binding [1]	binding [2]	binding [5]	further results
IVRKATLRRLL [peptide #8 (EGF Receptor), threonine-containing substrate peptide]	binds	binds	–	–
ASQKRPSQRH [peptide #6 (Myelin Basic Protein), serine-containing substrate peptide]	binds	binds	–	binding [3]: binds
IVRKAALRRLL [peptide #8 (EGF Receptor substrate peptide), alanine-substituted, in PKCα FRET sensor]	–	–	binds	binding [4]: binds; binding [6]: binds; binding [7]: binds; binding [8]: binds
ARKRERTYAFGHHA [peptide #9 (Optimized AKT Sub.), alanine-substituted, in PKCα FRET sensor]	–	–	binds	–
RRRRAIIFI (peptide, not shown: large carriers; small tags and cut ends) [peptide #10 (Optimized PKA Sub.), alanine-substituted, in PKCα FRET sensor]	–	–	binds	binding [9]: binds
FKLKRKGAFKKFA [peptide #11 (Optimized PKCβ Sub.), alanine-substituted, in PKCα FRET sensor]	–	–	binds	binding [4]: binds; binding [6]: binds
RRFKRQGAFFYFF (peptide, not shown: large carriers; small tags and cut ends) [peptide #12 (Optimized PKCζ Sub.), alanine-substituted, in PKCα FRET sensor]	–	–	binds	binding [10]: binds
KKKRFAFKKAF (peptide, not shown: large carriers; small tags and cut ends) [peptide #13 (MARCKS), alanine-substituted, in PKCα FRET sensor]	–	–	binds	binding [9]: binds
RRFKRQGSFFYFF [peptide #12 (Optimized PKCζ Sub.), serine-containing substrate peptide]	–	–	–	binding [3]: binds
FKLKRKGSFKKFA [peptide #11 (Optimized PKCβ Sub.), substrate peptide]	binds	binds	–	–
